Source: publication PMC5531588, “Staphylococcus aureus single-stranded DNA-binding protein SsbA can bind but cannot stimulate PriA helicase”

Target: Staphylococcus aureus PriA helicase (S. aureus)
Assay: SPR; SaPriA immobilised on CM5 chip, Biacore T200, 293 K, 40 mM Tris, 200 mM NaCl, 0.05% Tween-20, pH 8.0; analyte injected 120 s at 30 uL/min; 1:1 (Langmuir) model; both purified

- binding: no binding (tested: 0.06 to 2 μM)
Binder: NANGPIDISDDDLPF [SaSsbA-Ct peptide]

These are yes or no findings as the source states them, for the method shown.
